{
  "source": "patent US4774232A",
  "about": "“Bile-substituting method of treatment for the promotion of fat digestion” (Chinoin Gyogyszer Es Vegyeszeti Termak Ek Gyara Rt, priority 1985, dated 1988)",
  "test_system": "lipase",
  "assay": "In vitro enzymatic hydrolysis of triglycerides: glycerol trioleate, lipase",
  "assay_type": "biochemical",
  "conditions": "versus control",
  "protocol": "In an aqueous medium, lipase is capable to split triglycerides only at an extraordinarily low rate. Therefore, an organic solvent should be added to the system, by which the solubility of the triglycerides is increased, but the enzyme activity is diminished. Alternatively, some type of detergent, suitably bile has to be used. The effect of bile was compared to that of DIMEB at 37° C. in such a way that, the quantity of the formed free fatty acids in the samples taken from the reaction mixture at various intervals was titrated by using sodium hydroxide solution. The composition of the reaction mixture was as follows:\na total volume of 1.5 ml contained 4 μmoles of the substrate (triolein or olive oil), 10 mg of bovine serum albumin, 75 μmoles of sodium chloride, 50 μmoles of a phosphate buffer solution (pH 7.4) and 0.25 ml of an enzyme solution. A lipase of the Serva Company (in an 1 mg/10 ml solution) or a pancreas powder (0.5 g was suspended in 10 ml of distilled water and the slightly opalescent solution obtained after filtration was used) were employed as enzyme preparations.\nThe composition of the solutions to be tested were as follows:\n0.5 ml of buffer+10 mg of serum albumin+3.54 mg of substrate+0.25 ml of enzyme solution plus\n(a) 0.25 ml of diluted bile+0.50 ml of distilled water; or\n(b) 50 mg of dimethyl-β-cyclodextrin dissolved in 0.75 ml of water; or […]",
  "note": "At least one read-out could not be matched to a standard name with certainty.",
  "data": [
    {"smiles": "COC[C@H]1O[C@@H]2O[C@H]3[C@H](O)[C@@H](OC)[C@@H](O[C@H]4[C@H](O)[C@@H](OC)[C@@H](O[C@H]5[C@H](O)[C@@H](OC)[C@@H](O[C@H]6[C@H](O)[C@@H](OC)[C@@H](O[C@H]7[C@H](O)[C@@H](OC)[C@@H](O[C@H]8[C@H](O)[C@@H](OC)[C@@H](O[C@H]1[C@H](O)[C@H]2OC)O[C@@H]8COC)O[C@@H]7COC)O[C@@H]6COC)O[C@@H]5COC)O[C@@H]4COC)O[C@@H]3COC", "note": "[DIMEB, heptakis(2,6-di-O-methyl)-β-cyclodextrin]", "values": [
      {"measurement": "Increase in the reaction rate", "setting": "series Bile II, glycerol trioleate", "result": 18, "unit": "times"},
      {"measurement": "Increase in the reaction rate", "setting": "series Bile III, glycerol triolate", "result": 8.5, "unit": "times"}
    ]}
  ]
}
